This continues a long series; more values of the same kind are listed elsewhere.
Tested on: cancer cell lines from the cancer cell line encyclopedia (CCLE)
Assay: Cell line profiling (CLiP) proliferation experiment
Type: cell-based
Design: ACTIVITY_AREA: scale not given here; AMAX: unit not given here
Protocol: Compound profiling experiment and data analysis was performed as previously described. Data was imported and plotted using the Tibco Spotfire DXP application. Lines were categorized as sensitive, intermediate and refractory as follows: Amax<-40 & Inflection Point <2 ~ Sensitive, Amax>-20 & Inflection Point >10 ~ Refractory, all else were called Intermediate. Cancer Cell line HG-U133 Plus 2 data was processed and normalized as described. […] Five sets of refractory cell lines were generated from the pool of refractory cell lines trying to match the lineage composition of the set of sensitive cell lines. The limma package was used as previously described to perform the statistical comparison.

[1] = cell line HCC-15 (lung, squamous_cell_carcinoma)
[2] = cell line HCC-44 (lung, adenocarcinoma)
[3] = cell line HCC-1171 (lung, non_small_cell_carcinoma)
[4] = cell line HCT 116, large_intestine
[5] = cell line HCT-15, large_intestine
[6] = cell line HEL 92.1.7 (haematopoietic_and_lymphoid_tissue, acute_myeloid_leukaemia)
[7] = cell line HEL 92.1.7, haematopoietic_and_lymphoid_tissue
[8] = cell line HH, haematopoietic_and_lymphoid_tissue

CC(C)[C@@]12C[C@@H](O)[C@@](C)(O1)[C@@H]1CC[C@@H](C)[C@H]1[C@@H]2OC(=O)/C=C/c1ccccc1 [Englerin B]
RESPONSE (cell line HCC38): INTERMEDIATE
ACTIVITY_AREA (cell line HCC38, breast): 10.97
AMAX (cell line HCC38, breast): -45.93
RESPONSE (cell line HCC38, breast): INTERMEDIATE
ACTIVITY_AREA (cell line HCC827): 34.23
AMAX (cell line HCC827): -77.46
RESPONSE (cell line HCC827): INTERMEDIATE
ACTIVITY_AREA (cell line HCC827, lung): 34.23
AMAX (cell line HCC827, lung): -77.46
RESPONSE (cell line HCC827, lung): INTERMEDIATE
ACTIVITY_AREA (cell line HCC1143): 34.15
AMAX (cell line HCC1143): -49.72
RESPONSE (cell line HCC1143): INTERMEDIATE
ACTIVITY_AREA (cell line HCC1143, breast): 34.15
AMAX (cell line HCC1143, breast): -49.72
RESPONSE (cell line HCC1143, breast): INTERMEDIATE
ACTIVITY_AREA (cell line HCC1187): 52.26
AMAX (cell line HCC1187): -61.7
RESPONSE (cell line HCC1187): INTERMEDIATE
ACTIVITY_AREA (cell line HCC1187, breast): 52.26
AMAX (cell line HCC1187, breast): -61.7
RESPONSE (cell line HCC1187, breast): INTERMEDIATE
ACTIVITY_AREA (cell line HCC1395): 19.52
AMAX (cell line HCC1395): -39.26
RESPONSE (cell line HCC1395): INTERMEDIATE
ACTIVITY_AREA (cell line HCC1395, breast): 19.52
AMAX (cell line HCC1395, breast): -39.26
RESPONSE (cell line HCC1395, breast): INTERMEDIATE
ACTIVITY_AREA (cell line HCC1419): 74.8
AMAX (cell line HCC1419): -53.34
RESPONSE (cell line HCC1419): INTERMEDIATE
ACTIVITY_AREA (cell line HCC1419, breast): 74.8
AMAX (cell line HCC1419, breast): -53.34
RESPONSE (cell line HCC1419, breast): INTERMEDIATE
ACTIVITY_AREA (cell line HCC1428): 10.07
AMAX (cell line HCC1428): -43.35
RESPONSE (cell line HCC1428): INTERMEDIATE
ACTIVITY_AREA (cell line HCC1428, breast): 10.07
AMAX (cell line HCC1428, breast): -43.35
RESPONSE (cell line HCC1428, breast): INTERMEDIATE
ACTIVITY_AREA (cell line HCC1500): 18.34
AMAX (cell line HCC1500): -35.2
RESPONSE (cell line HCC1500): INTERMEDIATE
ACTIVITY_AREA (cell line HCC1500, breast): 18.34
AMAX (cell line HCC1500, breast): -35.2
RESPONSE (cell line HCC1500, breast): INTERMEDIATE
ACTIVITY_AREA (cell line HCC1569): 30.83
AMAX (cell line HCC1569): -51.52
RESPONSE (cell line HCC1569): INTERMEDIATE
ACTIVITY_AREA (cell line HCC1569, breast): 30.83
AMAX (cell line HCC1569, breast): -51.52
RESPONSE (cell line HCC1569, breast): INTERMEDIATE
ACTIVITY_AREA (cell line HCC1806): 25.73
AMAX (cell line HCC1806): -40.41
RESPONSE (cell line HCC1806): INTERMEDIATE
ACTIVITY_AREA (cell line HCC1806, breast): 25.73
AMAX (cell line HCC1806, breast): -40.41
RESPONSE (cell line HCC1806, breast): INTERMEDIATE
ACTIVITY_AREA (cell line HCC1937): 37.43
AMAX (cell line HCC1937): -51.09
RESPONSE (cell line HCC1937): INTERMEDIATE
ACTIVITY_AREA (cell line HCC1937, breast): 37.43
AMAX (cell line HCC1937, breast): -51.09
RESPONSE (cell line HCC1937, breast): INTERMEDIATE
ACTIVITY_AREA (cell line HCC1954): 52.62
AMAX (cell line HCC1954): -68.91
RESPONSE (cell line HCC1954): INTERMEDIATE
ACTIVITY_AREA (cell line HCC1954, breast): 52.62
AMAX (cell line HCC1954, breast): -68.91
RESPONSE (cell line HCC1954, breast): INTERMEDIATE
ACTIVITY_AREA (cell line HCC2218): 37.19
AMAX (cell line HCC2218): -45.48
RESPONSE (cell line HCC2218): INTERMEDIATE
ACTIVITY_AREA (cell line HCC2218, breast): 37.19
AMAX (cell line HCC2218, breast): -45.48
RESPONSE (cell line HCC2218, breast): INTERMEDIATE
ACTIVITY_AREA [1]: 57.49
AMAX [1]: -70.57
RESPONSE [1]: INTERMEDIATE
ACTIVITY_AREA [2]: 54.42
AMAX [2]: -58.5
RESPONSE [2]: INTERMEDIATE
ACTIVITY_AREA (cell line HCC-44, lung): 54.42
AMAX (cell line HCC-44, lung): -58.5
ACTIVITY_AREA (cell line HCC-95): 14.61
AMAX (cell line HCC-95): -59.04
RESPONSE (cell line HCC-95): INTERMEDIATE
ACTIVITY_AREA (cell line HCC-95, lung): 14.61
AMAX (cell line HCC-95, lung): -59.04
RESPONSE (cell line HCC-95, lung): INTERMEDIATE
ACTIVITY_AREA (cell line HCC-366): 6.53
AMAX (cell line HCC-366): 14.96
RESPONSE (cell line HCC-366): REFRACTORY
ACTIVITY_AREA (cell line HCC-366, lung): 6.53
AMAX (cell line HCC-366, lung): 14.96
ACTIVITY_AREA [3]: 53.16
AMAX [3]: -52.03
RESPONSE [3]: INTERMEDIATE
ACTIVITY_AREA (cell line HCT 116): 27.37
AMAX (cell line HCT 116): -29.85
RESPONSE (cell line HCT 116): INTERMEDIATE
ACTIVITY_AREA [4]: 27.37
AMAX [4]: -29.85
RESPONSE [4]: INTERMEDIATE
ACTIVITY_AREA (cell line HCT-15): 18.03
AMAX (cell line HCT-15): -41.69
RESPONSE (cell line HCT-15): INTERMEDIATE
ACTIVITY_AREA [5]: 18.03
AMAX [5]: -41.69
RESPONSE [5]: INTERMEDIATE
ACTIVITY_AREA (cell line HEC-1-A): 17.69
AMAX (cell line HEC-1-A): -45.32
RESPONSE (cell line HEC-1-A): INTERMEDIATE
ACTIVITY_AREA (cell line HEC-1-A, endometrium): 17.69
AMAX (cell line HEC-1-A, endometrium): -45.32
RESPONSE (cell line HEC-1-A, endometrium): INTERMEDIATE
ACTIVITY_AREA (cell line HEC-6): 19.97
AMAX (cell line HEC-6): -45.33
RESPONSE (cell line HEC-6): INTERMEDIATE
ACTIVITY_AREA (cell line HEC-6, endometrium): 19.97
AMAX (cell line HEC-6, endometrium): -45.33
RESPONSE (cell line HEC-6, endometrium): INTERMEDIATE
ACTIVITY_AREA (cell line HEC-50B): 36.05
AMAX (cell line HEC-50B): -44.91
RESPONSE (cell line HEC-50B): INTERMEDIATE
ACTIVITY_AREA (cell line HEC-50B, endometrium): 36.05
AMAX (cell line HEC-50B, endometrium): -44.91
RESPONSE (cell line HEC-50B, endometrium): INTERMEDIATE
ACTIVITY_AREA (cell line HEC-59): 78.46
AMAX (cell line HEC-59): -60.29
RESPONSE (cell line HEC-59): INTERMEDIATE
ACTIVITY_AREA (cell line HEC-59, endometrium): 78.46
AMAX (cell line HEC-59, endometrium): -60.29
RESPONSE (cell line HEC-59, endometrium): INTERMEDIATE
ACTIVITY_AREA (cell line HEC-151): 68.45
AMAX (cell line HEC-151): -69.63
RESPONSE (cell line HEC-151): INTERMEDIATE
ACTIVITY_AREA (cell line HEC-151, endometrium): 68.45
AMAX (cell line HEC-151, endometrium): -69.63
RESPONSE (cell line HEC-151, endometrium): INTERMEDIATE
ACTIVITY_AREA (cell line HEC-251): 28.47
AMAX (cell line HEC-251): -37.96
RESPONSE (cell line HEC-251): INTERMEDIATE
ACTIVITY_AREA (cell line HEC-251, endometrium): 28.47
AMAX (cell line HEC-251, endometrium): -37.96
RESPONSE (cell line HEC-251, endometrium): INTERMEDIATE
ACTIVITY_AREA (cell line HEC-265): 15.99
AMAX (cell line HEC-265): -55.28
RESPONSE (cell line HEC-265): INTERMEDIATE
ACTIVITY_AREA (cell line HEC-265, endometrium): 15.99
AMAX (cell line HEC-265, endometrium): -55.28
RESPONSE (cell line HEC-265, endometrium): INTERMEDIATE
ACTIVITY_AREA [6]: 34.01
AMAX [6]: -62.2
RESPONSE [6]: INTERMEDIATE
ACTIVITY_AREA [7]: 34.01
AMAX [7]: -62.2
RESPONSE [7]: INTERMEDIATE
ACTIVITY_AREA (cell line HGC-27): 76.82
AMAX (cell line HGC-27): -80.89
RESPONSE (cell line HGC-27): INTERMEDIATE
ACTIVITY_AREA (cell line HGC-27, stomach): 76.82
AMAX (cell line HGC-27, stomach): -80.89
RESPONSE (cell line HGC-27, stomach): INTERMEDIATE
ACTIVITY_AREA (cell line HH): 44.87
AMAX (cell line HH): -92.74
RESPONSE (cell line HH): INTERMEDIATE
ACTIVITY_AREA [8]: 44.87
AMAX [8]: -92.74
RESPONSE [8]: INTERMEDIATE
ACTIVITY_AREA (cell line HLC-1): 32.85
AMAX (cell line HLC-1): -47.99

From paper PMC4476799, “Englerin A Agonizes the TRPC4/C5 Cation Channels to Inhibit Tumor Cell Line Proliferation” (PLoS ONE, 2015)
